{"source": "patent US20220323376A1", "about": "“METHODS AND COMPOSITIONS FOR SENSITIZING CANCER CELLS TO DRUG-INDUCED APOPTOSIS” (New York University, priority 2019, published 2022)", "test_system": "human AML cell lines (MOLM-13, MV4:11, THP-1 and KASUMI-1)", "experiment": "ZIP model synergy of Venetoclax+Azacitidine with autophagy inhibitors", "format": "cell-based", "settings": "multiple human AML cell lines in vitro", "note": "Some of these results come from one statement about several compounds together."}
{"smiles": "CN(CCCCCCNc1ccnc2cc(Cl)ccc12)CCCCCCNc1ccnc2cc(Cl)ccc12", "note": "[DC661, N-(7-chloroquinolin-4-yl)-N′-[6-[(7-chloroquinolin-4-yl)amino]hexyl]-N′-methylhexane-1,6-diamine]", "values": [{"measurement": "delta-score of synergism (ZIP model) with Venetoclax plus Azacitidine", "value": "3-10"}]}
{"smiles": "CCN(CC)CCCC(C)Nc1ccnc2cc(Cl)ccc12", "note": "(centres unmarked) [Chloroquine, N′-(7-chloroquinolin-4-yl)-N,N-diethylpentane-1,4-diamine]", "values": [{"measurement": "delta-score of synergism (ZIP model) with Venetoclax plus Azacitidine", "value": "3-10"}]}
